Assay results from PubChem BioAssay AID1625 (Sanford-Burnham Center for Chemical Genomics, 2009).
About 570 (0.3%) of roughly 190,000 compounds were called active. Inconclusive means that the source gave no clear call. Such entries were picked first, then a sample of the others.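 The calls were made as follows: active = z-score above 3 at 5 µM with at least 500 cells counted in the well; inconclusive = wells under 500 cells, flagged as cytotoxic or low count; inactive = the rest.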

Experiment: up-regulation of insulin promoter-GFP reporter – imaging, high-content screening, mouse beta cells (AID 1625)
Settings: MIN6 insulin promoter-GFP reporter, at 5 µM, active compounds read high

| Compound | z-score |
| --- | --- |
| Cc1ccc(C#CC[N+]2(CC#Cc3ccc(C)cc3)CCCCC2)cc1 | inconclusive: -2.95 |
| Cc1ccc(-n2nnnc2Sc2ccc(S(=O)(=O)NCCN(C)C)cc2[N+](=O)[O-])cc1 | inconclusive: -1.94 |
| CCCNc1nc2c(c(=O)n(C)c(=O)n2C)n1Cc1cccc(C)c1 | inconclusive: -0.35 |
| Cc1ccc(N=Nc2ccc(O)c3ncccc23)cc1 | inconclusive: -4.56 |
| CCOC(=O)C1(Cc2cccc(F)c2)CCN(Cc2cn(CC)nc2C)CC1 | inactive: -0.99 |
| CN(C)c1ccc(/C=C/c2ccc3c4ccccc4ccc3[n+]2-c2ccccc2)cc1 | inconclusive: -2.41 |
| Cc1ccc2c(c1)[nH]c1c(N3CCN(Cc4ccccc4)CC3)ncnc12 | inconclusive: -1.51 |
| CCn1c(SCc2ccccc2)nnc1-c1ccc(S(=O)(=O)N2CCCCC2)cc1 | inconclusive: -1.48 |
| Cc1ccc(N=C2NC(=O)/C(=C/c3cn(C)c4ccccc34)S2)cc1C | active: 3.02 |
| CCC(=O)Nc1ccc2c(c1)ncn2-c1ccccc1 | active: 4.96 |
| Cc1ccc(Nc2nc3c([nH]2)c(=O)n(C)c(=O)n3C)cc1 | active: 3.32 |
| N#Cc1nc(N2CCOCC2)nc(N2CCOCC2)n1 | active: 3.26 |
| Cc1cc(C)c(NC(=S)NC(=O)c2c(Cl)c(C)nn2C)c([N+](=O)[O-])c1 | inconclusive: -4.87 |
| CCN1/C(=C/c2cc[n+](C)cc2)C=Cc2cc(C)ccc21 | inconclusive: -1.99 |
| CC(=O)Nc1ccc(-c2nnn(CC(=O)Nc3ccc4c(c3)OCO4)n2)cc1Cl | inactive: 0 |
| S=c1[nH]nc(-c2cccnc2)o1 | inactive: -0.2 |
| CC(=O)c1c(C)[nH]c(C(=O)OCCCCN2C(=O)c3ccccc3C2=O)c1C | inconclusive: -2.6 |
| C=CCNC(=O)C1CC2Cn3c(nc4cc5ccccc5cc43)C2N1C (configuration not stated) | active: 4.44 |
| COc1cc(OC)nc(-n2ncc(Br)c(Br)c2=O)n1 | inconclusive: -3.2 |
| Cc1c(C(C)C)c(=O)n(-c2ccc(S(=O)(=O)NCc3ccccc3)cc2)n1C | inconclusive: -4.87 |
| COc1cccc(OCCOCCN(C)CCO)c1 | inconclusive: -7.71 |
| OCCCN1CCN(CCOc2ccccc2-c2ccccc2)CC1 | inactive: -0.41 |
| CCOc1ccc(NC(=S)N2CCC(N(C)CC3CCCO3)CC2)cc1 (configuration not stated) | active: 3.59 |

| Compound | z-score |
| --- | --- |
| COc1cc(CNCc2ccncc2)cc(Br)c1OCc1ccccc1F | inconclusive: -1.06 |
| Fc1ccccc1/C=N/Nc1nc(-c2ccccn2)nc2ccccc12 | inconclusive: -3.56 |
| COc1cccc(C2CC(C(F)(F)F)n3ncc(C(=O)O)c3N2)c1 (configuration not stated) | inconclusive: -0.34 |
| CN1CCc2c(sc(NC(=O)c3cc4cc([N+](=O)[O-])ccc4s3)c2C(N)=O)C1 | inconclusive: -2.13 |
| CCCCCc1ccc(OCCCC[n+]2ccccc2)c(CCCCC)c1 | inconclusive: -6.35 |
| COC(=O)c1c(NC(=O)/C=C/C(=O)O)sc(Cc2ccccc2)c1C | inactive: -0.2 |
| CC1=C/C(=N\OS(=O)(=O)c2ccccc2)C(C)=CC1=O | inconclusive: -6.67 |
| COc1ccc(CCNC(=O)c2cnn3cccnc23)cc1OC | inconclusive: -1.46 |
| CCCCCCn1c(COc2ccccc2F)nnc1SCC(=O)N1c2ccccc2NC(=O)C1(C)C | inactive: -2.53 |
| Cc1cccc2[nH]c(SCC(=O)N3CCOCC3)nc12 | inactive: -0.37 |
| CC(NC(=O)c1cc(COc2ccc3ncccc3c2)on1)c1ccc(F)cc1 (configuration not stated) | inconclusive: -5.47 |
| O=C(CSc1nnc(-c2ccccc2)n1Cc1ccco1)NCc1ccc2c(c1)OCO2 | inconclusive: -2 |
| COc1cccc(/C=N/Nc2ncnc3scc(-c4ccccc4)c23)c1O | inconclusive: -5.56 |
| O=C(CNC(=O)OCc1ccccc1)Oc1cc2oc(=O)cc(-c3ccccc3)c2cc1Cl | inconclusive: -3.87 |
| O=C(Nc1ccc(F)cc1)N(Cc1ccco1)Cc1cc2cc3c(cc2[nH]c1=O)OCO3 | inconclusive: -6.91 |
| CC1(C)CC(N2CCCCC2)=CC(=[N+]2CCCCC2)C1 | inconclusive: -5.08 |
| O=C(Nc1ccc(F)cc1)N1CCN2C(=O)c3ccccc3C12c1ccccc1 (configuration not stated) | inactive: -0.31 |
| COc1cc(NS(=O)(=O)c2ccc(C)cc2C)cc(OC)c1OC | inconclusive: -2.78 |
| O=c1ccnc(Nc2ccc3c(c2)OCCO3)[nH]1 | active: 3.66 |
| CCCN(CCC)CCNC(=O)c1cc2c(C)nc3ccccc3c2o1 | inconclusive: -1.55 |
| CCCCCCCOC(=O)C[N+](C)(C)CCOC1CC2CCC1(C)C2(C)C (configuration not stated) | inconclusive: -4.02 |
| COc1ccc2cc3c(N)nn(C(=O)C4CCC(C(C)(C)C)CC4)c3nc2c1 (configuration not stated) | inactive: 0.03 |
| CN(C)c1ccc(/C=N/NC(=O)CN(c2ccccc2Cl)S(C)(=O)=O)cc1Br | active: 3.57 |

Rewritten as comma-separated lines: part of the list above.
Compound,z-score
COc1cc(CNCc2ccncc2)cc(Br)c1OCc1ccccc1F,inconclusive: -1.06
Cc1cccc2[nH]c(SCC(=O)N3CCOCC3)nc12,inactive: -0.37

More results

| Compound | z-score |
| --- | --- |
| Cc1cc(C(=O)CSc2nc3ccccc3c(=O)n2C)c(C)n1CC1CCCO1 (configuration not stated) | inconclusive: -1.55 |
| CCOC(=O)C1=C(c2ccc(OC)cc2)C(=O)c2ccccc2C1=O | inconclusive: -3.47 |
| C/C(=N\Nc1ncc(Cl)cc1Cl)c1ccccn1 | inconclusive: -0.93 |
| Cc1sc2ncnc(N3CCN(CCOc4ccc(Cl)cc4)CC3)c2c1C | inconclusive: -3.87 |
| Cn1cc(SCC(=O)N2CCOCC2)c2ccccc21 | inactive: -0.34 |
| CN(C)CCCn1c(SCC(=O)Nc2nc(-c3cccc(Br)c3)cs2)nc2ccccc2c1=O | inconclusive: -1.64 |
| CCN(Cc1ccncc1)S(=O)(=O)c1ccc(C(C)=O)cc1 | inconclusive: -4.72 |
| O=C1C(N2CCOCC2)=C(n2nnc3ccccc32)C(=O)c2ccccc21 | inconclusive: -4.52 |
| CC1Sc2n(c3ccccc3[n+]2C)N=C1c1ccccc1 (configuration not stated) | inconclusive: -5.49 |
| Cc1ccc(S(=O)(=O)c2cccc(S(=O)(=O)N3CCCC3)c2)cc1S(=O)(=O)N1CCCC1 | active: 3.05 |
| CCn1cc([N+](=O)[O-])c(C(=O)N2N=C(c3ccc(Cl)c(Cl)c3)CC2c2ccccc2O)n1 (configuration not stated) | inactive: -0.88 |
| COc1cc(CC(=O)OCC(=O)c2ccc3c(c2)OCCO3)cc(OC)c1OC | inconclusive: -1.19 |
| Oc1ccccc1-c1nc2cnccn2c1Nc1ccc2c(c1)OCCO2 | inactive: 0.35 |
| Clc1cccc(CN2COc3c(cc(Cl)c4cccnc34)C2)c1 | inconclusive: -5.3 |
| NN=C1c2cc([N+](=O)[O-])ccc2-c2ccc([N+](=O)[O-])cc21 | inactive: 0.63 |
| Cc1ccccc1OCCCCc1c(C)n[nH]c1C | inconclusive: -2.26 |
| CCn1c(Sc2nc(C)nc3scc(-c4cccs4)c23)n[nH]c1=O | inactive: -1.17 |
| CC(C)OCCCNc1ncnc2c1[nH]c1ccc(F)cc12 | inconclusive: -5.88 |
| O=C(c1cccs1)c1no[n+]([O-])c1C(=O)c1cccs1 | active: 3.78 |
| COc1ccc(/C=N/NC(=S)Nc2c(C)n(C)n(-c3ccccc3)c2=O)cc1OC | inactive: -0.09 |
| CN(NC1OC(=O)c2ccccc21)c1ccccc1[N+](=O)[O-] (configuration not stated) | inactive: 0.12 |
| C=CCOc1cccc(C2c3c(oc4ccccc4c3=O)C(=O)N2c2ccccn2)c1 (configuration not stated) | inconclusive: -2.08 |
| O=C(NCCO)c1cc([N+](=O)[O-])cc2c1C=Cc1ccccc1O2 | inactive: 0.71 |

An excerpt from above in order of molecular weight, ascending:

| Compound | z-score |
| --- | --- |
| CN(NC1OC(=O)c2ccccc21)c1ccccc1[N+](=O)[O-] (configuration not stated) | inactive: 0.12 |
| Cc1sc2ncnc(N3CCN(CCOc4ccc(Cl)cc4)CC3)c2c1C | inconclusive: -3.87 |
| Cc1cc(C(=O)CSc2nc3ccccc3c(=O)n2C)c(C)n1CC1CCCO1 (configuration not stated) | inconclusive: -1.55 |
| CCn1cc([N+](=O)[O-])c(C(=O)N2N=C(c3ccc(Cl)c(Cl)c3)CC2c2ccccc2O)n1 (configuration not stated) | inactive: -0.88 |

(continued)

| Compound | z-score |
| --- | --- |
| Cc1ccc2[nH]c3c(c2c1)CN(C(=O)CN1CCCc2ccccc21)CC3 | inconclusive: -1.03 |
| O=C(NCc1ccc(F)cc1)C(=O)Nc1nc(C23CC4CC(CC(C4)C2)C3)cs1 | inactive: 0.01 |
| COc1ccc(CCn2nnnc2C(C(C)C)N2CCN(c3ncccn3)CC2)cc1OC (configuration not stated) | inconclusive: -0.93 |
| c1ccc(C[n+]2cccc3c4ccccc4ccc32)cc1 | inconclusive: -2.5 |
| O=C(Nc1ccccc1)Nc1ccc2ocnc2c1 | inactive: -0.64 |
| Cn1c(=O)oc2cc(S(=O)(=O)N3CCC(C(=O)N4CC=C(c5ccccc5)CC4)CC3)ccc21 | inconclusive: 0.38 |
| CCCN(CCC)C1=CC(=[N+]2CCCC2)CC(C)(C)C1 | inconclusive: -5.54 |
| COc1ccc(C(O)c2nc3ccccc3n2C)cc1OC (configuration not stated) | inconclusive: -0.99 |
| COc1ccc(Nc2nc(N3CCCC3)c3ccccc3n2)cc1 | inconclusive: -6.95 |
| O=[N+]([O-])c1ccc(-c2cn(-c3ccccc3)c(=S)[nH]2)cc1 | inactive: 0.06 |
| CCc1ccc2nc(N=C(N)N)nc(C)c2c1 | inactive: 0.92 |
| Cc1ccnc(SCC(=O)Nc2sc3c(c2C#N)CCCC3)n1 | inconclusive: -2.35 |
| O=c1c2ccccc2nc(/C=C/c2ccc([N+](=O)[O-])o2)n1CCCO | inconclusive: -3.82 |
| Cc1cc(/C=C2\SC(=S)NC2=O)c(C)n1-c1ccc(O)cc1 | active: 3.66 |
| COc1ccccc1OCC(O)Cn1c(=N)n(Cc2ccccc2)c2ccccc21 (configuration not stated) | inconclusive: -3.4 |
| CCN1CCN(c2cc(C)c3cc(NC(=O)c4ccccc4F)ccc3n2)CC1 | inconclusive: -0.75 |
| Cc1ccc(Nc2nc(N3CCOCC3)c3ccccc3n2)cc1 | inactive: -3.61 |
| CN(C)c1cc[n+](Cc2ccccc2)cc1 | inconclusive: -6.24 |
| CCOC(=O)c1sc2nc[nH]c(=O)c2c1C | inactive: -0.3 |
| CCOc1ccc(CNC(=O)CCn2c(=O)oc3ccccc32)cc1 | active: 3.4 |
| O=C1C(=O)c2ccc(-c3ccccc3)cc2-c2ccccc21 | inconclusive: -1.3 |
| CCNC(=O)COC(=O)c1cc(C)n(-c2ccccc2)c1C | inactive: -0.72 |
| COc1ccc(N=Nc2ccc(O)c3ncccc23)cc1 | inconclusive: -5.73 |
